{
  "source": "PubChem BioAssay AID602373",
  "about": "(National Center for Advancing Translational Sciences (NCATS), 2012)",
  "note": "Inconclusive means that the source gave no clear call. Such entries were picked first, then a sample of the others. Potencies of inconclusive entries are doubtful fits and often do not repeat. Calls of active or inactive are those of the source. Calls follow the shape of the dose curve; as a rule, active = well fitted inhibition curve with a large enough effect; inconclusive = small, poorly fitted or top-dose-only effect; inactive = no such curve, though single readings can be large or run the other way.",
  "data": [
    {"assay": "qHTS Assay for Inhibitors of Bacillus subtilis Sfp phosphopantetheinyl transferase (PPTase): Hepg2 Assay", "conditions": "HepG2 cytotoxicity counter-screen; series mostly up to 46.1 µM; activity change, negative = inhibition: at the top concentration", "text": "The covalent attachment of a phosphopantetheinyl (4'-PP) arm to a variety of synthases and other proteins is a key posttranslational protein modification. The 4'-PP is installed on the proteins post-translationally from coenzyme A (CoA) on a conserved serine residue by action of phosphopantetheinyl transferase (PPTase) enzymes. Phosphopantetheinylation is essential for synthase activity, and removal of the PPTase gene precludes natural product synthesis in microorganisms, or in the case of fatty acid biosynthesis, renders the organism unviable. PPTase enzymes belong to a distinct structural superfamily. Within bacteria, these enzymes are grouped into two classes based upon primary structure, the AcpS-Type and Sfp-Type PPTases.\nSfp-type PPTases, corresponding to an activator of surfactin production in Bacillus subtilis, are responsible for modifying type I polyketide and nonribosomal peptide synthases of prokaryotes. Sfp-type PPTases are responsible for the activation of a variety of pathogen-associated virulence factors. Among these compounds are toxins such as mycolactone from Mycobacterium ulcerans, siderophores such as vibriobactin from Vibrio cholerae or mycobactin from Mycobacterium tuberculosis, as well as the mycolic acids which form the waxy cell wall of Mycobacteria. The biosyntheses of these natural products are considered attractive targets for drug design.\nIn search of small molecule Sfp-PPTase inhibitors, a fluorescence quenching assay was developed for detection of Bacillus subtilis Sfp-PPTase enzymatic activity in a miniaturized high-throughput format. The consensus ybbr acceptor peptide […] was N-terminally labeled with Black Hole Quencher-2 (BHQ-2) and used in combination with rhodamine-labeled coenzyme A as a co-substrate.\nPhosphopantetheinyl transfer is a process essential to cellular viability and maintenance in all forms of life. Cell-permeable and stable compounds acting as PPTase inhibitors are anticipated to be growth inhibitory agents. This assay sought to assess the toxicity of test compounds in the HepG2 hepatocarcinoma cells; a human cell line whose use additionally determines the toxicity of test article metabolites.\nNIH Chemical Genomics Center [NCGC]\nNIH Molecular Libraries Probe Centers Network [MLPCN]\nAssay Submitter (PI): Michale Burkart, University of California, San Diego\nTest compounds' toxicity was assessed by measuring cellular ATP content using a luciferase-coupled ATP quantitation assay (CellTiter-Glo; Promega, Madison, WI). In this assay, luminescent signal is proportional to amount of ATP, and thus to the number of metabolically competent cells. Briefly, Hepg2 cell suspension (5 uL, 4 x 10^5 cells/mL) was dispensed into 1,536-well tissue-culture treated white/solid bottom assay plates (Greiner Bio-One North America, Monroe, NC) using a Flying Reagent Dispenser (Aurora Discovery, Carlsbad, CA). Cells were incubated at 37 deg C for 6 hr to allow for cell attachment, followed by addition of compounds via pin tool (Kalypsys, San Diego, CA). After compound addition, plates were incubated for 48 hr at 37 deg C. At the end of the incubation period, CellTiter-Glo reagent (5 uL) was added, plates were incubated at room temperature in the dark for 30 min, and the luminescence intensity of each well was determined using a ViewLux plate reader (PerkinElmer, Shelton, CT). The positive control was 92 uM and 41 uM of tetra-N-Octylammonium bromide, and the negative control was DMSO.", "values": [
      {"smiles": "CSC(Cc1ccc(Cl)cc1)C(=O)Nc1ccc(Cl)cc1C(=O)O", "note": "(stereo not given)", "Potency": "inconclusive: 35.3 µM [inhibitor, partial curve, poor fit]"},
      {"smiles": "Cc1cc(C)nc(NC(=S)N2CCN(Cc3c(F)cccc3Cl)CC2)c1", "activity change, negative = inhibition": "inactive: 4.35%"},
      {"smiles": "Cc1ccnc(CC(=S)N2CCN(c3cccc(C(F)(F)F)c3)CC2)c1", "Potency": "inconclusive: 4.99 µM [inhibitor, full curve]"},
      {"smiles": "FC(F)(F)c1cccc(N2CCN(C(=S)Nc3cccnc3)CC2)c1", "Potency": "inconclusive: 35.3 µM [inhibitor, partial curve, poor fit]"},
      {"smiles": "Cc1cc(C)nc(NC(=S)N2CCN(c3cccc(C(F)(F)F)c3)CC2)c1", "Potency": "inconclusive: 14.1 µM [inhibitor, partial curve]"},
      {"smiles": "Cc1ccnc(N=C(N)N2CCN(c3cccc(C(F)(F)F)c3)CC2)c1", "Potency": "active: 28.1 µM"},
      {"smiles": "COc1ccc(N2CCN(C(=S)Nc3cc(C)ccn3)CC2)cc1", "activity change, negative = inhibition": "inactive: -8.81%"},
      {"smiles": "Cc1cc(C)nc(NC(=S)N2CCN(c3ccc(Cl)cc3C(F)(F)F)CC2)c1", "activity change, negative = inhibition": "inactive: -3.78%"},
      {"smiles": "Cc1cc(C)nc(NC(=S)N2CCN(c3ccc(Cl)cc3Cl)CC2)c1", "Potency": "inconclusive: 11.2 µM [inhibitor, single point]"},
      {"smiles": "Cc1ccnc(NC(=S)NCCN(C)c2cccc(C(F)(F)F)c2)c1", "activity change, negative = inhibition": "inactive: 3.44%"},
      {"smiles": "Cc1ccnc(NC(=S)N2CCN(c3cc(F)cc(Cl)c3)CC2)c1", "Potency": "inconclusive: 12.5 µM [inhibitor, partial curve]"},
      {"smiles": "FC(F)(F)c1cc(N2CCN(C(=S)Nc3cc(Cl)ccn3)CC2)cc(C(F)(F)F)c1", "Potency": "active: 15.8 µM"},
      {"smiles": "Cc1cccc(NC(=S)N2CCN(c3cccc(C(F)(F)F)c3)CC2)c1", "Potency": "inconclusive: 17.7 µM [inhibitor, partial curve, poor fit]"},
      {"smiles": "Cc1cc(C)nc(NC(=S)N2CCN(c3ccc(C(=O)O)cc3)CC2)c1", "activity change, negative = inhibition": "inactive: -3.29%"},
      {"smiles": "Cc1ccnc(NC(=S)N[C@@H]2CCN(c3cccc(C(F)(F)F)c3)C2)c1", "Potency": "inconclusive: 7.91 µM [inhibitor, partial curve, poor fit]"},
      {"smiles": "Cc1cc(C)nc(NC(=S)N2CCN(c3nccs3)CC2)c1", "Potency": "inconclusive: 28.1 µM [inhibitor, single point] and inactive"},
      {"smiles": "CC(Cc1ccccc1)C(=O)Nc1ccc(Cl)cc1C(=O)O", "note": "(stereo not given)", "activity change, negative = inhibition": "inactive: -0.724%"},
      {"smiles": "Cc1cc(C)nc(NC(=S)N2CCN(c3cc(Br)cc(C(F)(F)F)c3)CC2)c1", "Potency": "inconclusive: 9.96 µM [inhibitor, full curve]"},
      {"smiles": "Cc1cc(C)nc(NC(=S)N2CCN(c3ccccn3)CC2)c1", "Potency": "inactive"},
      {"smiles": "FC(F)(F)c1cccc(N2CCN(C(=S)Nc3cc(C(F)(F)F)ccn3)CC2)c1", "Potency": "active: 19.9 µM"},
      {"smiles": "Cc1ccnc(NC(=S)N2CC3CN(c4cccc(C(F)(F)F)c4)CC3C2)c1", "note": "(stereo not given)", "Potency": "inconclusive: 12.5 µM [inhibitor, partial curve]"},
      {"smiles": "Cc1cc(C)nc(NC(=S)N2CCN(c3cncs3)CC2)c1", "Potency": "inconclusive: 12.5 µM [inhibitor, partial curve, poor fit]"},
      {"smiles": "Cc1cc(C)nc(NC(=S)N2CCN(c3cc(C(F)(F)F)cc(C(F)(F)F)c3)CC2)c1", "Potency": "inconclusive: 7.05 µM [inhibitor, full curve]"},
      {"smiles": "Cc1cc(C)nc(NC(=S)N2CCN(c3ncccc3C#N)CC2)c1", "Potency": "inconclusive: 3.53 µM [inhibitor, partial curve, poor fit]"},
      {"smiles": "Cc1cc(C)nc(NC(=S)N2CCN(c3ccsc3)CC2)c1", "activity change, negative = inhibition": "inactive: -8.98%"},
      {"smiles": "Cc1cc(C)nc(NC(=S)N2CCN(c3ccc(F)c(F)c3F)CC2)c1", "Potency": "inconclusive: 17.7 µM [inhibitor, partial curve]"},
      {"smiles": "COc1cccc(NC(=S)N2CCN(c3cc(C(F)(F)F)cc(C(F)(F)F)c3)CC2)n1", "Potency": "inconclusive: 12.5 µM [inhibitor, partial curve]"},
      {"smiles": "Cc1ccnc(NC(=O)N2CCN(c3cccc(C(F)(F)F)c3)CC2)c1", "Potency": "active: 6.28 µM"},
      {"smiles": "Cc1ccnc(NC(=S)N2CC3CN(c4ncc(C(F)(F)F)cc4Cl)CC3C2)c1", "note": "(stereo not given)", "Potency": "inconclusive: 15.8 µM [inhibitor, partial curve]"},
      {"smiles": "Cc1cc(C)nc(NC(=S)N2CCN(c3cc(C#N)cc(C#N)c3)CC2)c1", "Potency": "inconclusive: 4.99 µM [inhibitor, partial curve, poor fit]"},
      {"smiles": "Cc1cc(C)nc(NC(=S)N2CCN(c3cccc(C#N)c3)CC2)c1", "Potency": "inconclusive: 15.8 µM [inhibitor, partial curve]"},
      {"smiles": "Cc1ccnc(NC(=S)N2CCCN(c3cccc(C(F)(F)F)c3)CC2)c1", "Potency": "active: 25 µM"},
      {"smiles": "COC(=O)c1ccnc(NC(=S)N2CCN(c3cccc(C(F)(F)F)c3)CC2)c1", "Potency": "inconclusive: 15.8 µM [inhibitor, partial curve, poor fit]"},
      {"smiles": "Cc1cc(C)nc(NC(=S)N2CCN(C3=Nc4ccccc4Oc4ccccc43)CC2)c1", "Potency": "inconclusive: 17.7 µM [inhibitor, partial curve, poor fit]"},
      {"smiles": "COc1cccc(NC(=S)N2CCN(c3cccc(C(F)(F)F)c3)CC2)n1", "Potency": "active: 28.1 µM"},
      {"smiles": "COc1cccc(NC(=S)N2CCN(c3ccc(Cl)cc3Cl)CC2)n1", "activity change, negative = inhibition": "inactive: -2.52%"},
      {"smiles": "COc1cccc(NC(=S)N2CCN(c3ccc(C(F)(F)F)cc3[N+](=O)[O-])CC2)n1", "activity change, negative = inhibition": "inactive: -3.46%"},
      {"smiles": "S=C(Nc1cc(Cl)ccn1)N1CCN(c2cccc(Cl)c2Cl)CC1", "Potency": "inconclusive: 6.28 µM [inhibitor, full curve]"},
      {"smiles": "Cc1cc(C)nc(NC(=S)N2CCN(c3ccc(Cl)c(Cl)c3)CC2)c1", "Potency": "inconclusive: 19.9 µM [inhibitor, partial curve]"},
      {"smiles": "FC(F)(F)c1cccc(N2CCN(C(=S)Nc3ccc4ccccc4n3)CC2)c1", "Potency": "inconclusive: 12.5 µM [inhibitor, partial curve]"}
    ]}
  ]
}
